Reference: publication PMC5223379
These are yes or no findings as the source states them, for the method shown. Some results given as binding are weak or reduced against the parent protein; the word gives no strength. Tags and fused reporters may be left off the sequences shown.

Target: T1, Gal4-DNA-BD-Irr1Δ1-467 (C-terminal part of Irr1 starting from I468) (S. cerevisiae) (UniProt P40541)
T1 sequence: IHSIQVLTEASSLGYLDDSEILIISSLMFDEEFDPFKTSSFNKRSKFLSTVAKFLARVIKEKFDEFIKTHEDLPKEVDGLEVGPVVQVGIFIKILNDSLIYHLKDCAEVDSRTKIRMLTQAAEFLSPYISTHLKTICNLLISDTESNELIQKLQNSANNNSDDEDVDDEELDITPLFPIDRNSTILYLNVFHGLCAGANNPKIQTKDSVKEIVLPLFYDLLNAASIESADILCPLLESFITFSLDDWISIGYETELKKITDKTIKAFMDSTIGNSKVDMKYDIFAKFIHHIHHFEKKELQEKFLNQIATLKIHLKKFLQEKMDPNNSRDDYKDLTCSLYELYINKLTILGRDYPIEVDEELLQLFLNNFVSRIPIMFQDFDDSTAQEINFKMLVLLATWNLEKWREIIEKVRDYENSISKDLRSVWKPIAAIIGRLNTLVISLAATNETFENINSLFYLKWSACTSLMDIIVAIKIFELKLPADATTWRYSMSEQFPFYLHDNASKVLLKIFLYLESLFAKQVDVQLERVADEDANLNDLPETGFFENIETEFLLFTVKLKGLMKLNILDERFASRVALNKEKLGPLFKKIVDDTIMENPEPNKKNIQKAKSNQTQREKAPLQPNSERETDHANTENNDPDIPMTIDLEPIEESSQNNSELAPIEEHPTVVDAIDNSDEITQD
Experiment: two-hybrid; Gal4 system in strain PJ69-4α; bait Gal4-DNA-BD fusion from pGBKT7, preys AD-Gal4 fusions (genomic library screen and direct test); growth on SD lacking histidine with 10 mM 3-amino-1,2,4-triazole

In the case of “Mrps5 fragment P56-G260 (two-hybrid prey) (from UniProt P33759 56-260) (domain or fragment)”, the binding is reported as “binds”.
